PubChem BioAssay AID504774 | Drosophila RNAi Screening Center | 2011
The deposit covers about 23,000 reagents; shown is an unselected part of those with a known target gene and a result. 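Values are quantile-normalised luminescence on an arbitrary scale; higher means more cells surviving MMS.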 The numbers tell different reagents against one gene apart. Further read-outs or replicates are left out here.

- Screen: 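Knock-downs that shift viability of MMS-exposed cells relative to untreated ones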 (primary screen)
- Cell system: Drosophila Kc167 cells
- Knock-down reagent: long dsRNA against Drosophila genes, about 0.25 µg dsRNA per well
- Time to read-out: about 6 days: 3 days knock-down, then 3 days with or without MMS
- Conditions: methyl methanesulphonate 0.004% (w/v) for 3 days after knock-down
- Read-out: 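ATP-dependent luminescence as a measure of live cells in MMS-exposed wells, quantile normalised within each plate, with replicate values also given as a mean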
- Scale: mean viability with MMS and viability with MMS: higher = more surviving cells after MMS

NFAT #1 → mean viability with MMS: 3.28e6; viability with MMS, replicate 1: 3.74e6
NFAT #2 → mean viability with MMS: 3.50e6; viability with MMS, replicate 1: 3.89e6
MME1 → mean viability with MMS: 3.41e6; viability with MMS, replicate 1: 3.80e6
CG9393 → mean viability with MMS: 3.53e6; viability with MMS, replicate 1: 4.02e6
wfs1 → mean viability with MMS: 3.71e6; viability with MMS, replicate 1: 4.29e6
AhcyL1 → mean viability with MMS: 3.60e6; viability with MMS, replicate 1: 4.03e6
UbcE2M → mean viability with MMS: 3.30e6; viability with MMS, replicate 1: 3.78e6
CG12782 → mean viability with MMS: 3.47e6; viability with MMS, replicate 1: 3.81e6
mRpL55 → mean viability with MMS: 3.69e6; viability with MMS, replicate 1: 4.32e6
CG11498 → mean viability with MMS: 3.28e6; viability with MMS, replicate 1: 3.67e6
rictor → mean viability with MMS: 3.61e6; viability with MMS, replicate 1: 4.21e6
Cys → mean viability with MMS: 3.63e6; viability with MMS, replicate 1: 4.20e6
CG8958 → mean viability with MMS: 3.48e6; viability with MMS, replicate 1: 3.93e6
CG6108 (retired record) → mean viability with MMS: 3.53e6; viability with MMS, replicate 1: 3.88e6
